{"sequences": {"note": "Sequences of proteins named here, by UniProt entry; tags and fusion partners are left off. A change or cut given only in a name is not applied to a line headed by its entry. Residues count along the entry.", "UniProt Q96P20": "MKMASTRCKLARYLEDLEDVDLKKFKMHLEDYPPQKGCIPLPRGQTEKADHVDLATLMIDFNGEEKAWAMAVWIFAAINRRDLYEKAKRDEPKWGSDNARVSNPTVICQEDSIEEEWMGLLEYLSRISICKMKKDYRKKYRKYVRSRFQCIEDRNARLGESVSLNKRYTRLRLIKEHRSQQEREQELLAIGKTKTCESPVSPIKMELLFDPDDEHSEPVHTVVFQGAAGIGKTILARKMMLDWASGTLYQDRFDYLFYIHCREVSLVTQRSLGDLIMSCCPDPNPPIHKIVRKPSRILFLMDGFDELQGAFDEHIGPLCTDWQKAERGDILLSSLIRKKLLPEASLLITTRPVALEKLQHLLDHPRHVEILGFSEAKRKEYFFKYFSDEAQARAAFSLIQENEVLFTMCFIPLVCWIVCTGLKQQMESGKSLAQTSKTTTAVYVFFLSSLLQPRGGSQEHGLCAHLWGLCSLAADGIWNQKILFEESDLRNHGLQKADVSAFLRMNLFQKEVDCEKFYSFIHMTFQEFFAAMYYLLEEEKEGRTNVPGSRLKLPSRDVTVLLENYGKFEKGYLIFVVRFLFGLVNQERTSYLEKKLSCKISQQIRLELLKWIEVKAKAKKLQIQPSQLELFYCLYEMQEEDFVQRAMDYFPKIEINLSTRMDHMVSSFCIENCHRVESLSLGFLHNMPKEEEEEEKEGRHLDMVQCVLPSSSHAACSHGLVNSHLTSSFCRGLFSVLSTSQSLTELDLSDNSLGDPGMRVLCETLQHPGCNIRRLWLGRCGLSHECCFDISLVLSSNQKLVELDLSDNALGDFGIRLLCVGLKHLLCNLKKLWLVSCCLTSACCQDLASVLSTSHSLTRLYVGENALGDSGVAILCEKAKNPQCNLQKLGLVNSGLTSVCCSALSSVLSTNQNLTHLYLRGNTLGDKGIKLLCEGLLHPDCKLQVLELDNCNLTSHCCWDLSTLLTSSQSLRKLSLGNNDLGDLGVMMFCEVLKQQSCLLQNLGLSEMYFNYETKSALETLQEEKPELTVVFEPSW", "NLRP3 PYRIN (PYD) domain": "residues 1-93 of Q96P20", "NLRP3 NACHT domain": "residues 220-536 of Q96P20", "UniProt O00141": "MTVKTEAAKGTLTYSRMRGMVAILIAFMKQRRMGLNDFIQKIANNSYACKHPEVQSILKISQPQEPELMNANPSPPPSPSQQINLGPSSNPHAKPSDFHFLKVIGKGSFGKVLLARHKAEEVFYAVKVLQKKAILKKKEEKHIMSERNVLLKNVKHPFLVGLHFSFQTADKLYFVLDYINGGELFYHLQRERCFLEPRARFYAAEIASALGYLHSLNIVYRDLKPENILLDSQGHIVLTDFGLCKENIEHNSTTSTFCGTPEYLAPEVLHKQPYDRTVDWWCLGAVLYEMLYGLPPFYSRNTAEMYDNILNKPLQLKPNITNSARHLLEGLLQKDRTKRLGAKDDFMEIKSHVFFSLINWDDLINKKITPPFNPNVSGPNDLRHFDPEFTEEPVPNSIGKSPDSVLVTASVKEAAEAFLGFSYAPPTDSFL"}, "source": "paper PMC9986248", "key": {"[1]": {"biological_target": "GFP-NLRP3 (UniProt Q96P20)", "experiment": "co-IP; tagged proteins (GFP-NLRP3, FLAG-SGK1, MYC-ASC) transfected in HEK-293T cells stimulated with LPS (200 ng/mL, 3 h) and ATP (5 mM, 30 min); total lysates; NLRP3 with ASC in the absence and presence of FLAG-SGK1"}, "[2]": {"biological_target": "NLRP3 PYRIN (PYD) domain (UniProt Q96P20)", "experiment": "co-IP; domain mapping: HEK-293T cells transfected with plasmids for full-length SGK1 and one of the NLRP3 domains, 48 h, immunoblotting"}, "[3]": {"biological_target": "NLRP3 NACHT domain (UniProt Q96P20)", "experiment": "co-IP; domain mapping: HEK-293T cells transfected with plasmids for full-length SGK1 and one of the NLRP3 domains, 48 h, immunoblotting"}, "[4]": {"biological_target": "serum/glucocorticoid-inducible kinase 1 (endogenous, THP-1) (human (endogenous in THP-1)) (UniProt O00141)", "experiment": "co-IP; endogenous proteins in total lysates of THP-1 cells (saline, LPS 200 ng/mL 3 h, or LPS + ATP 5 mM 30 min; control or SGK1 siRNA for NLRP3 with ASC); 500 ug lysate with primary antibody 14 h at 4 °C, protein G Dynabeads; lysis buffer 50 mM Tris-HCl pH 7.4, 150 mM NaCl, 1 mM EDTA, 0.5% NP-40, 0.25% sodium deoxycholate"}, "[5]": {"biological_target": "GST-fused NLRP3 (UniProt Q96P20)", "experiment": "pull-down; GST-fused NLRP3 on glutathione Sepharose 4B beads incubated with in vitro translated SGK1 (rabbit reticulocyte lysate), washed with binding buffer, SDS-PAGE; only the target purified"}, "[6]": {"biological_target": "NLR family pyrin domain containing 3 (endogenous, THP-1) (human (endogenous in THP-1)) (UniProt Q96P20)", "experiment": "co-IP; endogenous proteins in total lysates of THP-1 cells (saline, LPS 200 ng/mL 3 h, or LPS + ATP 5 mM 30 min; control or SGK1 siRNA for NLRP3 with ASC); 500 ug lysate with primary antibody 14 h at 4 °C, protein G Dynabeads; lysis buffer 50 mM Tris-HCl pH 7.4, 150 mM NaCl, 1 mM EDTA, 0.5% NP-40, 0.25% sodium deoxycholate"}}, "note": "Results are given in words; binding and its absence hold for the method and conditions named. Binding seen in cells or lysates may run through a third protein. Some results given as binding are weak or reduced against the parent protein; the word gives no strength.", "data": [{"substance": "FLAG-SGK1 (from UniProt O00141 1-431)", "values": [{"measurement": "binding", "setting": "[1]", "result": "binds"}, {"measurement": "binding", "setting": "[2]", "result": "binds"}, {"measurement": "binding", "setting": "[3]", "result": "binds weakly"}]}, {"substance": "NLR family pyrin domain containing 3 (endogenous, THP-1) (from UniProt Q96P20 1-1036)", "values": [{"measurement": "binding", "setting": "[4]", "result": "binds"}]}, {"substance": "in vitro translated SGK1 (from UniProt O00141 1-431)", "values": [{"measurement": "binding", "setting": "[5]", "result": "binds"}]}, {"substance": "serum/glucocorticoid-inducible kinase 1 (endogenous, THP-1) (from UniProt O00141 1-431)", "values": [{"measurement": "binding", "setting": "[6]", "result": "binds"}]}]}
